# Data: paper PMC10556033
# By UniProt entry, the sequences of proteins in these tests, tags left out.
# UniProt O60573: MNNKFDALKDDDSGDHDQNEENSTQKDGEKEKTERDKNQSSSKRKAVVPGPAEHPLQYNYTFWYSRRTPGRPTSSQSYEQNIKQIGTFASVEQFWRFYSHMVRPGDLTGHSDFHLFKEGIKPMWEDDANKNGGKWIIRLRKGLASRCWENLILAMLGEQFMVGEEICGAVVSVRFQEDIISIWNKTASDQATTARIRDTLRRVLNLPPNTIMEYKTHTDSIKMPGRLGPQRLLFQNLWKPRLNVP
# UniProt Q13619: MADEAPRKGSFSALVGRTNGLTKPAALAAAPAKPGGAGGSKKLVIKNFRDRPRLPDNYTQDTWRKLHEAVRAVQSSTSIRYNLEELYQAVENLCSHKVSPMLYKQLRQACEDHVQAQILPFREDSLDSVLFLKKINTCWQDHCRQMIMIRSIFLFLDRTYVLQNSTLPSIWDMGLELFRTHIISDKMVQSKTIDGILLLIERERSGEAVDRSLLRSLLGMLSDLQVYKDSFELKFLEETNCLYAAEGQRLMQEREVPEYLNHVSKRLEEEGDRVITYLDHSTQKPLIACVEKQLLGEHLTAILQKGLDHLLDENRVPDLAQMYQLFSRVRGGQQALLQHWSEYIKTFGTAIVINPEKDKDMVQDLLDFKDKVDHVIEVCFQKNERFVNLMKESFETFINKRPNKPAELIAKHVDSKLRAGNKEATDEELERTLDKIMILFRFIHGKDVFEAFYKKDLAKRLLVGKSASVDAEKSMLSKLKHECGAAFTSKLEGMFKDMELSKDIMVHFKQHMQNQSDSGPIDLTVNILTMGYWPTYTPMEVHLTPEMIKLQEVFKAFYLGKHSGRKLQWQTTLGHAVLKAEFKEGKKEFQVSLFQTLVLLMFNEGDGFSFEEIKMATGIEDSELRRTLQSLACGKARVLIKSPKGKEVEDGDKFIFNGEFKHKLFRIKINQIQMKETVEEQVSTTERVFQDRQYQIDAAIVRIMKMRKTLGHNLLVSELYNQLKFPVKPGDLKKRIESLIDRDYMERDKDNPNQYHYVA
# UniProt Q7Z6E9: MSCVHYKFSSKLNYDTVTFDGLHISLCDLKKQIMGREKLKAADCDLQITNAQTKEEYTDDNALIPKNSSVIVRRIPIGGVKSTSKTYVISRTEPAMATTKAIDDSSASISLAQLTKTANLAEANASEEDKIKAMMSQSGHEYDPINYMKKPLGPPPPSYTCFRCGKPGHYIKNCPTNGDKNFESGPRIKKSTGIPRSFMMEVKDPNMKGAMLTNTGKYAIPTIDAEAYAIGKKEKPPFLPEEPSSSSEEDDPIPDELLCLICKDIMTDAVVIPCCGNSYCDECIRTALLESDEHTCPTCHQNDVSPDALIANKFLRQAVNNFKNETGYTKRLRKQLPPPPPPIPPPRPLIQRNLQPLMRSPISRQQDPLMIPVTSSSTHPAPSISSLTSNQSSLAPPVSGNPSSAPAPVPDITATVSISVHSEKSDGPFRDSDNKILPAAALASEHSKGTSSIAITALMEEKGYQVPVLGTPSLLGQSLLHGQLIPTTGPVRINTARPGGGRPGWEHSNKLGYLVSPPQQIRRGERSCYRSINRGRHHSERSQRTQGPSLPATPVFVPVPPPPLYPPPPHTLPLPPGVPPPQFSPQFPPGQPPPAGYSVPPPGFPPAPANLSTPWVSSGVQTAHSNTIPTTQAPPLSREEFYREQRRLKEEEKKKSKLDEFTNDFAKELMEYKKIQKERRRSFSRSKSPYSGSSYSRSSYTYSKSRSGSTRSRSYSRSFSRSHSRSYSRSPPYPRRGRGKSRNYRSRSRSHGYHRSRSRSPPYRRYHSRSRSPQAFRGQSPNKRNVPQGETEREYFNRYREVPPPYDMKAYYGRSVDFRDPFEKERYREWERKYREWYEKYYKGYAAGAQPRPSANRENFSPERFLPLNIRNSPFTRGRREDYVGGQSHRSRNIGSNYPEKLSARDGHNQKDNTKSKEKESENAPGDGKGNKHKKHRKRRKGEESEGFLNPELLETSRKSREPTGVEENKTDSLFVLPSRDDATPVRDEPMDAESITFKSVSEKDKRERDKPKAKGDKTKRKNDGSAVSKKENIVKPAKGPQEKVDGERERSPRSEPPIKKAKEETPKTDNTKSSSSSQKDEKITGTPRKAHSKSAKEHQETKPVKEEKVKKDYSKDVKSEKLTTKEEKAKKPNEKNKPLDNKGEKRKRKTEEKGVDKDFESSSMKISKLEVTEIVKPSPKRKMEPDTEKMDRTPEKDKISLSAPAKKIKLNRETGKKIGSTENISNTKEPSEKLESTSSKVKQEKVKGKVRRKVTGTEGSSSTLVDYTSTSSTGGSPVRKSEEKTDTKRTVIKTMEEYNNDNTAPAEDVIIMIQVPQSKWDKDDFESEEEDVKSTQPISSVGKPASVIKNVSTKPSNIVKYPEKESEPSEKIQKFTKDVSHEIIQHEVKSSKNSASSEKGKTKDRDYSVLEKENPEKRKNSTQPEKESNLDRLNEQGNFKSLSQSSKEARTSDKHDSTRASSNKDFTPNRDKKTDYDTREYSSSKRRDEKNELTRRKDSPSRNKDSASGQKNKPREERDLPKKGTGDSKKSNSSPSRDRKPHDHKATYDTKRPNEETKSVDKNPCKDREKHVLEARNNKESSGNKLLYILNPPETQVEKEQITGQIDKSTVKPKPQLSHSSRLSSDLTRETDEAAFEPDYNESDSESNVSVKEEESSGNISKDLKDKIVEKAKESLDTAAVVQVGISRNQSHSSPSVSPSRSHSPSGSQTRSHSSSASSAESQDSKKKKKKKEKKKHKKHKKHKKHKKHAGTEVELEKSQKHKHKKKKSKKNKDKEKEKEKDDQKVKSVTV
# Results are given in words; binding and its absence hold for the method and conditions named. In cells and extracts the contact can be indirect. Here binding means that the protein was enriched with, or labelled near, the bait; the list need not be complete. Tags and fused reporters may be left off the sequences shown.
# Target: T1, His-tagged mesoderm-specific transcript (MEST), from MEST cDNA plasmid (UniProt Q5EB52)
# T1 sequence (chain, N-glycan with LeY and α1,3-fucosylation at Asn163): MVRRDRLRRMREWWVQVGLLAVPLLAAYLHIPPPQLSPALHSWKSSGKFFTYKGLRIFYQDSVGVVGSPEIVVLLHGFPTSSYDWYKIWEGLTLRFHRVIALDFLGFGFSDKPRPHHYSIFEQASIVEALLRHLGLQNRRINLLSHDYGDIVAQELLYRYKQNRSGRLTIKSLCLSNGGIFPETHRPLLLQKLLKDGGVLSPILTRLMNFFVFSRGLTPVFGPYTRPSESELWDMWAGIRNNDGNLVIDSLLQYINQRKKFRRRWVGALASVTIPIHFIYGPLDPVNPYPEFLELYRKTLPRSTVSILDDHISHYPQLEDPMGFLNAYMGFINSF
# Test: affinity purification with mass spectrometry; anti-MEST antibody on Protein A/G PLUS-Agarose; RIPA lysate of HTR-8/SVneo cells transfected with MEST cDNA or MEST mut; eluate separated by SDS-PAGE, trypsin digest, LC-MS/MS
row,Substance,binding
1,eukaryotic initiation factor eIF4E2 (from UniProt O60573 1-245),binds
2,PKD1 (from UniProt P98161 24-4303),binds
3,CUL4A (from UniProt Q13619 1-759),binds
4,RBBP6 (from UniProt Q7Z6E9 1-1792),binds
